This note sets out measurements from publication PMC10367052.

By UniProt entry, the sequences of proteins in these tests, tags left out. Where a name states a change or a piece, a line headed by the entry shows the natural chain unless it says otherwise. Residues count along the entry.
UniProt Q8NHS0: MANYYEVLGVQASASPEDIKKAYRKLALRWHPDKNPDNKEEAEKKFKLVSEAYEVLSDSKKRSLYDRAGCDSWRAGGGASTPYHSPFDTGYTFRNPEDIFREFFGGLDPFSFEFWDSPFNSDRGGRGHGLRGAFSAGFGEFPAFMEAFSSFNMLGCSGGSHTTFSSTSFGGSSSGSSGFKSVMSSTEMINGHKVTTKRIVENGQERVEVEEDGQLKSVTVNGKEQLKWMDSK
UniProt P12277: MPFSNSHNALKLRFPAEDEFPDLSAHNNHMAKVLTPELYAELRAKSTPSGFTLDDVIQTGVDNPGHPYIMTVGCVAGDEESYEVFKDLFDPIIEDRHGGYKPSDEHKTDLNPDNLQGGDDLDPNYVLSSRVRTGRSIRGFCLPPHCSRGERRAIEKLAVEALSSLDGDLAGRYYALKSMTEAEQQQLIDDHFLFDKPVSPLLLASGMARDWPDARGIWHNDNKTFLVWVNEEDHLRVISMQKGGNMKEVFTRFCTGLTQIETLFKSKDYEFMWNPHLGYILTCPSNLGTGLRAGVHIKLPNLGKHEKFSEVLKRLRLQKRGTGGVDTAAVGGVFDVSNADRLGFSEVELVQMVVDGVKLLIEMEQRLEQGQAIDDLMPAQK
UniProt Q99497: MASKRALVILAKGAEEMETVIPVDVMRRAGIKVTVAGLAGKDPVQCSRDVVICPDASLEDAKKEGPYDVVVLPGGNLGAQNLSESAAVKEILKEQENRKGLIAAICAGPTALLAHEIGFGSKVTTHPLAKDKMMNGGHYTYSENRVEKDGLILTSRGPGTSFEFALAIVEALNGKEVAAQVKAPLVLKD
UniProt P17028: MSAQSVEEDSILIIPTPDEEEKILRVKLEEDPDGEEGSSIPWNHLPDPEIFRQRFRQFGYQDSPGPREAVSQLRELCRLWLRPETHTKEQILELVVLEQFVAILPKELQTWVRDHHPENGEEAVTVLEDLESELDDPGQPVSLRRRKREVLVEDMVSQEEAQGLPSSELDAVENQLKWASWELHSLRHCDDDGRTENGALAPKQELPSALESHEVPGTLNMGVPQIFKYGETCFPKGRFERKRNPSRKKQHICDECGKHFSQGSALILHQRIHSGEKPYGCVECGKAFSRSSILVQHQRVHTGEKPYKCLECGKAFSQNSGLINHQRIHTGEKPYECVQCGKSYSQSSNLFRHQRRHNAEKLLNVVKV
UniProt P04406: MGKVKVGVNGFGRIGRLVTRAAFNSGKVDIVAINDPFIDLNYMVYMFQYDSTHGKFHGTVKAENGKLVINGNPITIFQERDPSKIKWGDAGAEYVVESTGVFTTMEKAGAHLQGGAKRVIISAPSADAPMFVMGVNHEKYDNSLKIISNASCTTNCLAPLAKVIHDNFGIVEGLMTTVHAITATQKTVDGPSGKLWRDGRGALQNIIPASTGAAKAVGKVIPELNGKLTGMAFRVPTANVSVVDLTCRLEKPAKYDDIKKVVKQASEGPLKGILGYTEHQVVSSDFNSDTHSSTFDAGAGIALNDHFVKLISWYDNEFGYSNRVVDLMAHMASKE
UniProt P60228: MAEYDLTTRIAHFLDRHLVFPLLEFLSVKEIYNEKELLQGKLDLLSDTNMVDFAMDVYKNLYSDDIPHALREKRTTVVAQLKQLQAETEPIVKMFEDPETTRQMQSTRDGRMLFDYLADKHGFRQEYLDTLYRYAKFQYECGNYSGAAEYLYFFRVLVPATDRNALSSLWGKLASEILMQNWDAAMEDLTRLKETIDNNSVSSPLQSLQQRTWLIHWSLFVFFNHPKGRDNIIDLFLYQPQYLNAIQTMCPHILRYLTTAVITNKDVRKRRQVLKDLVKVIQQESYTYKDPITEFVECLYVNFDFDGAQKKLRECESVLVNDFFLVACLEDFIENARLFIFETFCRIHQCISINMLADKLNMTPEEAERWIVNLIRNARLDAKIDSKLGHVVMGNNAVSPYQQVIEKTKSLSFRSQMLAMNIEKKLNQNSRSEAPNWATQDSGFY
UniProt P04818: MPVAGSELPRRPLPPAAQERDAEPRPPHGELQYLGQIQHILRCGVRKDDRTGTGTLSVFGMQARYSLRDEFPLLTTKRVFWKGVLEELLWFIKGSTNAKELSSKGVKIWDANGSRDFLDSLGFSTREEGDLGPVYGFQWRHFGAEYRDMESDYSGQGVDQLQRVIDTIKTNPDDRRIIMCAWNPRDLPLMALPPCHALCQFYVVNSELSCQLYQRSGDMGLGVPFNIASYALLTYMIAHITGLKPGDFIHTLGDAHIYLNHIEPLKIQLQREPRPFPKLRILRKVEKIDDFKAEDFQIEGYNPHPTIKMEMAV
UniProt P10809, residues 27-573: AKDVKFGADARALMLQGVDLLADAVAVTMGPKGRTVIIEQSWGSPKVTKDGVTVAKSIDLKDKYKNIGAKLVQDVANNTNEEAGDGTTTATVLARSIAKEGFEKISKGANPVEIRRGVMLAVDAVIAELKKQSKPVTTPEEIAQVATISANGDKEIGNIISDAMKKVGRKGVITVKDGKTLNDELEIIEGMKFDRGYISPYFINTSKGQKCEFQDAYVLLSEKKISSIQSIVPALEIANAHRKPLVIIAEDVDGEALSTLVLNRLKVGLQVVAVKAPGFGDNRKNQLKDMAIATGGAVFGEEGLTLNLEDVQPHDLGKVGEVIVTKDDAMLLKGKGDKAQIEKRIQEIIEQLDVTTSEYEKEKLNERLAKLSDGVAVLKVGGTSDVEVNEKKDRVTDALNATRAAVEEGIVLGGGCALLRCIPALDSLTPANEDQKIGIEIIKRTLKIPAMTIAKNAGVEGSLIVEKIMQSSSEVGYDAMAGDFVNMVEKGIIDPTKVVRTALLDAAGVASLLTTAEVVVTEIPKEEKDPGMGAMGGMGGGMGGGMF
UniProt Q14145: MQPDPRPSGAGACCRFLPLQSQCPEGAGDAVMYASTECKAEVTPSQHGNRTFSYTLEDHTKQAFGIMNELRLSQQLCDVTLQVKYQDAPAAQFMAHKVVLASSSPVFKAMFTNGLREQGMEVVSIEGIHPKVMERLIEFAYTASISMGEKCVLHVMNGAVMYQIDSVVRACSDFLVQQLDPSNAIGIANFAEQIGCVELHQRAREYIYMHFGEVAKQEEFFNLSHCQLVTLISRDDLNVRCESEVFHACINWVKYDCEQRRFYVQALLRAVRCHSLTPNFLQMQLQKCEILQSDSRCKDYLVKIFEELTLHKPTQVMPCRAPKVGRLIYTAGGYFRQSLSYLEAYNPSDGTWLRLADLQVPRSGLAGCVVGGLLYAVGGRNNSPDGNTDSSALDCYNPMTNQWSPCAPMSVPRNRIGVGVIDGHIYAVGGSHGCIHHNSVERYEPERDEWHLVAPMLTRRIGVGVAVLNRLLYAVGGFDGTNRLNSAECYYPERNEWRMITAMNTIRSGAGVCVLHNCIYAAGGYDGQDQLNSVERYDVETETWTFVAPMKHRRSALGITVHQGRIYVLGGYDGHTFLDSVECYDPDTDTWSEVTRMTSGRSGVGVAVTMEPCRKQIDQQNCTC
UniProt P30101, residues 25-505: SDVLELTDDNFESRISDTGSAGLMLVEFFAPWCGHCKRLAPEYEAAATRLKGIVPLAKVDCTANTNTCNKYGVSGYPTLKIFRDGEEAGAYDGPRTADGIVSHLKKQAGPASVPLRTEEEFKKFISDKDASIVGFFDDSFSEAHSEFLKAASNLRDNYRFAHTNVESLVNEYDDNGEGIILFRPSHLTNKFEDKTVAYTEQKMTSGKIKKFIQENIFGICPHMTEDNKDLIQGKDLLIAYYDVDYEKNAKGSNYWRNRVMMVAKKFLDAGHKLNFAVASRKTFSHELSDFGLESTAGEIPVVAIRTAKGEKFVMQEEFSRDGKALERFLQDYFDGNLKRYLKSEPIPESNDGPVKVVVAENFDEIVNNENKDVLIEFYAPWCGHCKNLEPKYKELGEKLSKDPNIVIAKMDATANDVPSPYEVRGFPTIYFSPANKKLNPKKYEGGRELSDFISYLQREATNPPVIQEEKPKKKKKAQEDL
UniProt Q96GX5: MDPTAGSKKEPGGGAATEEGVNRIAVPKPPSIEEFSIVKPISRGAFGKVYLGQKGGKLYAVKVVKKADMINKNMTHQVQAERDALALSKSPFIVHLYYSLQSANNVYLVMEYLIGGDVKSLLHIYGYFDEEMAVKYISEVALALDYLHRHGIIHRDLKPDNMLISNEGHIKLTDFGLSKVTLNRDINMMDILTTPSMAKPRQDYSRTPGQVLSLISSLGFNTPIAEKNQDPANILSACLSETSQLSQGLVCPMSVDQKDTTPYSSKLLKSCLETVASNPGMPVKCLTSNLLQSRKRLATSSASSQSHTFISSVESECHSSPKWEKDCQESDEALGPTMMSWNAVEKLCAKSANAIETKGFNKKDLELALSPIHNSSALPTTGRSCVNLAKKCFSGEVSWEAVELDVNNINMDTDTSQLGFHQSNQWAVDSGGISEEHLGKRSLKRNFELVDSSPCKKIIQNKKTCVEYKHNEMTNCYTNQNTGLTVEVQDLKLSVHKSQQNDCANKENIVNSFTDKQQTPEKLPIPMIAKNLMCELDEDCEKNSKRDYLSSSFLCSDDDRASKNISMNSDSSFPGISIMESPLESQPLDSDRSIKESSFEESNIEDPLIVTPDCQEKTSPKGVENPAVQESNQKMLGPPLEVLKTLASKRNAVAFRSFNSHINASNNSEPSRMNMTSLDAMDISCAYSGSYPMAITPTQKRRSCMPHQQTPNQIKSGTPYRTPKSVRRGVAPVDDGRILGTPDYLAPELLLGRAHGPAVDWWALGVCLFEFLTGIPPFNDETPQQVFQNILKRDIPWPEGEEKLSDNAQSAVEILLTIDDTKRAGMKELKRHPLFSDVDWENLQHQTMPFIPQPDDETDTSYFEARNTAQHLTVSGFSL

Experiment [1] addresses FlagDNAJB8 H31Q (H31Q mutant of the human Hsp40 chaperone DNAJB8) (human) (UniProt Q8NHS0). The experiment can be described thus: affinity purification with mass spectrometry; FlagDNAJB8 H31Q overexpressed in HEK293T; cells treated 30 min with 1 mM acetochlor, alachlor or propachlor (or vehicle) in serum-free media; RIPA lysis; M2 anti-Flag magnetic beads overnight at 4 °C; four RIPA washes; eluates TMT-labelled, LC/LC-MS/MS (12 biological replicates per treatment).

For experiment [2] the target is unchanged. Described as above. This is another data set of the same source.

Where two headings read alike, the source gives them in different places. These are yes or no findings as the source states them, for the method shown. In cells and extracts the contact can be indirect. These calls come from enrichment with a bait or labelling near it, and not all partners need be listed.

For “creatine kinase CKB (from UniProt P12277 1-381)”, the binding entry in experiment [1] is “binds”.
On the same count and under the same terms, then “Parkinson's disease protein 7 (PARK7/DJ-1) (from UniProt Q99497 1-189)”, with “binds”.
Still for that read-out and setting: the value for “zinc finger protein 24 (ZNF24) (from UniProt P17028 1-368)” was “binds”; that for “glyceraldehyde-3-phosphate dehydrogenase (GAPDH) (from UniProt P04406 1-335)” was “binds”; that for “eukaryotic translation initiation factor 3 subunit E (eIF3e) (from UniProt P60228 1-445)” was “binds”.
Still for that read-out and setting: then “thymidylate synthase (TYMS) (from UniProt P04818 1-313)”, with “binds”.
With HSPD1 (from UniProt P10809 27-573), in experiment [1], the binding result is “binds”.
Same read-out and setting: then KEAP1 (from UniProt Q14145 1-624), with “binds”.
On the same count and under the same terms, the value for PDIA3 (from UniProt P30101 25-505) was “binds”.
Still for that read-out and setting: then “microtubule-associated serine/threonine kinase like (MASTL) (from UniProt Q96GX5 1-879)”, with “binds”.

B1: Acetyl-CoA acetyltransferase 1 (ACAT1) (protein, UniProt P24752 34-427)
chain: VSKPTLKEVVIVSATRTPIGSFLGSLSLLPATKLGSIAIQGAIEKAGIPKEEVKEAYMGNVLQGGEGQAPTRQAVLGAGLPISTPCTTINKVCASGMKAIMMASQSLMCGHQDVMVAGGMESMSNVPYVMNRGSTPYGGVKLEDLIVKDGLTDVYNKIHMGSCAENTAKKLNIARNEQDAYAINSYTRSKAAWEAGKFGNEVIPVTVTVKGQPDVVVKEDEEYKRVDFSKVPKLKTVFQKENGTVTAANASTLNDGAAALVLMTADAAKRLNVTPLARIVAFADAAVEPIDFPIAPVYAASMVLKDVGLKKEDIAMWEVNEAFSLVVLANIKMLEIDPQKVNINGGAVSLGHPIGMSGARIVGHLTHALKQGEYGLASICNGGGGASAMLIQKL
As for B1, in experiment [2], the binding result is “binds”.

B2: DLD (protein, UniProt P09622 36-509)
chain: ADQPIDADVTVIGSGPGGYVAAIKAAQLGFKTVCIEKNETLGGTCLNVGCIPSKALLNNSHYYHMAHGKDFASRGIEMSEVRLNLDKMMEQKSTAVKALTGGIAHLFKQNKVVHVNGYGKITGKNQVTATKADGGTQVIDTKNILIATGSEVTPFPGITIDEDTIVSSTGALSLKKVPEKMVVIGAGVIGVELGSVWQRLGADVTAVEFLGHVGGVGIDMEISKNFQRILQKQGFKFKLNTKVTGATKKSDGKIDVSIEAASGGKAEVITCDVLLVCIGRRPFTKNLGLEELGIELDPRGRIPVNTRFQTKIPNIYAIGDVVAGPMLAHKAEDEGIICVEGMAGGAVHIDYNCVPSVIYTHPEVAWVGKSEEQLKEEGIEYKVGKFPFAANSRAKTNADTDGMVKILGQKSTDRVLGAHILGPGAGEMVNEAALALEYGASCEDIARVCHAHPTLSEAFREANLAASFGKSINF
On to B2, for which the binding entry in experiment [2] is on record as “binds”.

B3: ACAA2 (protein, UniProt P42765 1-397)
chain: MALLRGVFVVAAKRTPFGAYGGLLKDFTATDLSEFAAKAALSAGKVSPETVDSVIMGNVLQSSSDAIYLARHVGLRVGIPKETPALTINRLCGSGFQSIVNGCQEICVKEAEVVLCGGTESMSQAPYCVRNVRFGTKLGSDIKLEDSLWVSLTDQHVQLPMAMTAENLAVKHKISREECDKYALQSQQRWKAANDAGYFNDEMAPIEVKTKKGKQTMQVDEHARPQTTLEQLQKLPPVFKKDGTVTAGNASGVADGAGAVIIASEDAVKKHNFTPLARIVGYFVSGCDPSIMGIGPVPAISGALKKAGLSLKDMDLVEVNEAFAPQYLAVERSLDLDISKTNVNGGAIALGHPLGGSGSRITAHLVHELRRRGGKYAVGSACIGGGQGIAVIIQSTA
Consider B3, for which the binding result in experiment [2] is recorded as “binds”.

B4: NNT (protein, UniProt Q13423 44-1086)
chain: CKAPVKPGIPYKQLTVGVPKEIFQNEKRVALSPAGVQNLVKQGFNVVVESGAGEASKFSDDHYRVAGAQIQGAKEVLASDLVVKVRAPMVNPTLGVHEADLLKTSGTLISFIYPAQNPELLNKLSQRKTTVLAMDQVPRVTIAQGYDALSSMANIAGYKAVVLAANHFGRFFTGQITAAGKVPPAKILIVGGGVAGLASAGAAKSMGAIVRGFDTRAAALEQFKSLGAEPLEVDLKESGEGQGGYAKEMSKEFIEAEMKLFAQQCKEVDILISTALIPGKKAPVLFNKEMIESMKEGSVVVDLAAEAGGNFETTKPGELYIHKGITHIGYTDLPSRMATQASTLYSNNITKLLKAISPDKDNFYFDVKDDFDFGTMGHVIRGTVVMKDGKVIFPAPTPKNIPQGAPVKQKTVAELEAEKAATITPFRKTMSTASAYTAGLTGILGLGIAAPNLAFSQMVTTFGLAGIVGYHTVWGVTPALHSPLMSVTNAISGLTAVGGLALMGGHLYPSTTSQGLAALAAFISSVNIAGGFLVTQRMLDMFKRPTDPPEYNYLYLLPAGTFVGGYLAALYSGYNIEQIMYLGSGLCCVGALAGLSTQGTARLGNALGMIGVAGGLAATLGVLKPGPELLAQMSGAMALGGTIGLTIAKRIQISDLPQLVAAFHSLVGLAAVLTCIAEYIIEYPHFATDAAANLTKIVAYLGTYIGGVTFSGSLIAYGKLQGLLKSAPLLLPGRHLLNAGLLAASVGGIIPFMVDPSFTTGITCLGSVSALSAVMGVTLTAAIGGADMPVVITVLNSYSGWALCAEGFLLNNNLLTIVGALIGSSGAILSYIMCVAMNRSLANVILGGYGTTSTAGGKPMEISGTHTEINLDNAIDMIREANSIIITPGYGLCAAKAQYPIADLVKMLTEQGKKVRFGIHPVAGRMPGQLNVLLAEAGVPYDIVLEMDEINHDFPDTDLVLVIGANDTVNSAAQEDPNSIIAGMPVLEVWKSKQVIVMKRSLGVGYAAVDNPIFYKPNTAMLLGDAKKTCDALQAKVRESYQK
As to B4, the binding entry in experiment [2] was “binds”.
